This passage reports binding results from publication PMC6921004, “Structural Characterization of Full-Length Human Dehydrodolichyl Diphosphate Synthase Using an Integrative Computational and Experimental Approach” (Biomolecules, 2019).

Results are given in words; binding and its absence hold for the method and conditions named. Some results given as binding are weak or reduced against the parent protein; the word gives no strength.

This assay addresses Dehydrodolichyl diphosphate synthase (DHDDS), full-length human (human) (UniProt Q86SQ9). The assay is described as follows: SAXS in-line with SEC; ESRF BM29; ~8 mg/mL, 50 uL on Superdex-200 increase 10/300 GL; Tris-HCl pH 7.5, 150 mM NaCl, 20 mM beta-mercaptoethanol, 0.02% Triton X-100; 20 °C; both purified.

B1: Dehydrodolichyl diphosphate synthase (DHDDS), full-length human (enzyme, UniProt Q86SQ9 1-333, looked up)
chain: MSWIKEGELSLWERFCANIIKAGPMPKHIAFIMDGNRRYAKKCQVERQEGHSQGFNKLAETLRWCLNLGILEVTVYAFSIENFKRSKSEVDGLMDLARQKFSRLMEEKEKLQKHGVCIRVLGDLHLLPLDLQELIAQAVQATKNYNKCFLNVCFAYTSRHEISNAVREMAWGVEQGLLDPSDISESLLDKCLYTNRSPHPDILIRTSGEVRLSDFLLWQTSHSCLVFQPVLWPEYTFWNLFEAILQFQMNHSVLQKARDMYAEERKRQQLERDQATVTEQLLREGLQASGDAQLRRTRLHKLSARREERVQGFLQALELKRADWLARLGTASA
notes: Dehydrodolichyl diphosphate synthase (DHDDS), human, UniProt Q86SQ9, full length; synthesized gene cloned into pET-32b between NdeI and BamHI; Expressed as a TRX fusion with a 6xHis-tag and a TEV site; the tag and the fusion were removed by TEV protease; also called hDHDDS; human DHDDS; source: E. coli T7 express, purified (TALON-Superflow, TEV cleavage, second TALON-Superflow, Superdex-200 SEC)
B1: the binding result is reported as “binds”.
